The values that follow come from PubChem BioAssay AID2685 (National Center for Advancing Translational Sciences (NCATS), 2010).

The other results are listed elsewhere or left out. The main result of the screen is listed elsewhere. These columns were measured beside it and carry no call. The list favours compounds with an active or inconclusive main result. Potencies come from curve fits of mixed quality, noted in brackets.

This assay in a line: qHTS Assay for Lipid Storage Modulators in Drosophila S3 Cells.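 For cell number change: cells counted by Cell Tracker Red CMTPX staining in the red channel.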 Conditions: BODIPY lipid droplet fluorescence, 18-24 h; for cell number change: measured here: cell count max response, cells fed with added oleic acid. In a few lines: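 Drosophila S3 cells loaded with oleic acid (400 uM, as added) and compounds at several concentrations; lipid droplets imaged by 488-nm laser-scanning cytometry, 500–530 nm intensity and object ratio to cell channel. Percent activity normalized to 20 uM Triacsin C.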

[1] abbreviates: measured here: cell number channel AC50, cells fed with added oleic acid.
The mark [2] stands for this setting: measured here: lipid fluorescence (Fed channel) AC50, cells fed with added oleic acid.

Turning to `Cc1ccc(NS(=O)(=O)c2ccc(NC(=O)C3CC3)cc2)c(C)c1`, the AC50 under setting [1] was 5.17 µM [falling, single point].
With `NC(=O)CC(c1ccccc1)c1ccc2c(c1)OCO2` (configuration not stated), the cell number change is -23.9%. Also, the AC50 under setting [2] was 29.1 µM [rising, single point].
With `Cc1ccc(C2(C)NC(=O)N(CC(=O)NNC(=O)c3ccccc3F)C2=O)cc1` (configuration not stated), the cell number change is -25.2%. In addition, the AC50 under setting [2] was 6.51 µM [falling, single point].
Take `CC(c1nnc(SCC(=O)c2c(N)n(C3CC3)c(=O)[nH]c2=O)n1-c1ccc(F)cc1)N(C)C` (configuration not stated): the cell number change is -21.5%.
As to `CC/C(=C\c1oc2cc3ccccc3cc2[n+]1CC)Nc1ccccc1`, the cell number change was -32.3%. The AC50 under setting [1] was 0.517 µM [falling, full curve].
With `COc1ccccc1CNC(=O)N1CCN(S(=O)(=O)c2ccc(C)cc2)CC1`, the cell number change was found to be 19.8%.
Regarding `Cc1[nH]c2ccccc2c1C(=O)CSc1nccc(=O)[nH]1`, the cell number change came to 29%. In addition, the AC50 under setting [1] was 0.00517 µM [rising, full curve, poor fit].
For `C=CCc1cc(C)ccc1OCCCn1ccnc1`, the cell number change is -28%. For the same compound, the AC50 under setting [2] is 16.4 µM [falling, single point].
`COc1ccc(CCCc2nnc(SCc3nc4ccccc4c(=O)[nH]3)n2C)cc1`: the cell number change was -4.74%.
With `COc1ccc2c(c1)CCc1c(C(=O)N3CC4(C)CC3CC(C)(C)C4)noc1-2` (configuration not stated), the cell number change worked out at 46.7%. Besides, the AC50 under setting [1] was 29.1 µM [rising, single point]. Moreover, the AC50 under setting [2] was 0.103 µM [falling, partial curve, poor fit].
In the case of `O=C(NNC(=O)c1cc(Br)c(Br)s1)c1ccncc1`, the cell number change came out at 6.36%. Besides, the AC50 under setting [2] was 1.3 µM [rising, partial curve, poor fit].
For the compound `Cc1ccccc1NC(=O)NNC(=O)CCc1ccccc1`, the cell number change was 13.4%. Besides, the concentration at half-maximal activity (AC50) under setting [2] was 29.1 µM [rising, single point].
Take `COc1ccc2oc(C(=O)OCC(=O)N(C)c3ccccc3)c(C)c2c1`: the cell number change stood at 43.1%. Under setting [1], the AC50 is 16.4 µM [rising, partial curve].
`CC(=O)OC[C@H]1O[C@@H](Sc2cccc3cccnc23)[C@H](OC(C)=O)[C@@H](OC(C)=O)[C@H]1OC(C)=O`: the cell number change was -2.63%. Under setting [2], the AC50 is 29.1 µM [rising, single point].
With `Cc1ncn(C23CC4CC(CC(C4)C2)C3)n1`, the cell number change was -12.8%. The AC50 under setting [1] was 0.0651 µM [falling, full curve, poor fit]. Also, the AC50 under setting [2] is 0.0651 µM [falling, full curve, poor fit].
As for `CCN1CCN(c2ccc(S(=O)(=O)N3CCOCC3)cc2NC(=O)c2ccc(C)c(C)c2)CC1`, the cell number change is 37.3%. Further, the AC50 under setting [1] is 6.51 µM [rising, partial curve, poor fit]. The AC50 under setting [2] was 0.82 µM [rising, full curve, poor fit].
For the compound `Brc1ccc(N/N=C(/N=Nc2nn[nH]n2)c2ccccc2)cc1`, the cell number change was determined as 5.81%. Moreover, under setting [2], the AC50 was 0.0651 µM [rising, single point].
As to `CSc1cccc(NC(=O)c2cccc3cccnc23)c1`, the cell number change turned out to be 9.68%. Also, under setting [2], the AC50 was 2.31 µM [falling, partial curve, poor fit].
As for `CC(C)n1cnc2c(=S)nc[nH]c21`, the cell number change was 12.8%. Moreover, the AC50 under setting [1] is 4.11 µM [falling, single point]. In addition, under setting [2], the AC50 was 0.259 µM [rising, full curve].
Turning to `COc1cccc(N2CCN(C(=O)Nc3ccccc3Cl)CC2)c1`, the AC50 runs as follows: under setting [1], 0.259 µM [rising, full curve]; under setting [2], 0.231 µM [rising, full curve, poor fit].
`Cc1ccc(-n2cc(-c3ccccc3)c3c(=O)[nH]cnc32)cc1`: the cell number change was found to be 24.4%. Also, the AC50 under setting [2] is 18.4 µM [rising, single point].
As to `Cn1c(=O)c2ccccc2n(CC(=O)NC2CCCCC2)c1=O`, the cell number change came out at 15.4%. Also, the AC50 under setting [2] was 0.058 µM [rising, full curve].
Take `CCc1cc(=O)[nH]c(SCc2cccc3ccccc23)n1`: the AC50 under setting [2] was 29.1 µM [rising, single point].
`CCn1nc(C)cc1C(=O)N1CCCC(N2CCN(c3cccc(Cl)c3)CC2)C1` (configuration not stated): the cell number change was -3.18%.
As to `CC(=O)C[C@H](O)CC(=O)[C@H]1OC(=O)CC/C=C\Cc2ccccc21`, the cell number change is -37.2%. Besides, the half-maximal activity concentration (AC50) under setting [1] was 29.1 µM [falling, single point]. Also, the AC50 under setting [2] is 1.16 µM [falling, single point].
For `COc1ccc(N(CCCN2C(=O)c3cccc4cccc(c34)C2=O)C(=O)c2cccc(OC)c2)cc1`, the cell number change was -23.1%.
Turning to `CCCn1nc2cc(C(=O)NCc3ccc4c(c3)OCO4)ccc2c1OCC`, the cell number change is -49.1%. In addition, the AC50 under setting [1] was 18.4 µM [falling, single point]. Besides, under setting [2], the AC50 is 16.4 µM [falling, single point].
With `CC(NC(=O)c1ccccc1)c1ccc(Br)cc1` (configuration not stated), the cell number change stood at 30.9%. In addition, the AC50 under setting [1] was 29.1 µM [rising, single point]. Besides, under setting [2], the AC50 is 23.1 µM [rising, single point].
Consider `COc1ccc(Cl)cc1NC(=S)NCCN1CCOCC1`, for which the cell number change was -21.2%. Under setting [2], the AC50 was 29.1 µM [falling, single point].
For the compound `C#CCOCCOCCOCCNc1nc(N2CCN(C(=O)CCCCCCCCCCNC(=O)[C@@H](CCSC)n3cc(CCO)nn3)CC2)nc(N2CCN(C(=O)CCCCCCCCCCNC(=O)[C@H](CCCN=C(N)N)n3cc(C[C@@H](C)CC)nn3)CC2)n1`, the cell number change is -87.3%. The AC50 under setting [1] is 13 µM [falling, partial curve]. The AC50 under setting [2] is 13 µM [falling, partial curve].
For the compound `O=C(CCCNS(=O)(=O)c1ccc(Br)cc1)N1CC[C@@]2(O)CCCC[C@H]2C1`, the cell number change is -29.9%. For the same compound, under setting [2], the AC50 is 16.4 µM [falling, partial curve].
For the compound `O=C(NCCc1cccc(F)c1)C1CCC(=O)N(CCCc2ccccc2)C1` (configuration not stated), the cell number change is -6.93%. The AC50 under setting [2] is 0.58 µM [rising, single point].
On to `O=C(NCC1CCCN(Cc2ccc3c(c2)OCCO3)C1)c1ccc2c(c1)OCO2` (configuration not stated), for which the cell number change was found to be 8.03%.
As to `COC(=O)c1ccc(C(C(=O)NC2CCCCC2)N(CCc2ccccc2)C(=O)Cc2cccs2)cc1` (configuration not stated), the cell number change was -7.56%. Also, the AC50 under setting [2] was 0.517 µM [falling, partial curve, poor fit].
In the case of `COc1cc(C(=O)Nc2nc3ccccc3[nH]2)ccc1OC(F)F`, the cell number change is 6.34%. In addition, the AC50 under setting [1] is 3.26 µM [falling, single point]. Further, the AC50 under setting [2] is 6.51 µM [falling, single point].
As to `CCOC(=O)CNC(=O)Cn1c(C)cc2ccccc2c1=O`, the cell number change amounted to 7.34%. The AC50 under setting [2] was 0.103 µM [falling, full curve, poor fit].
As to `CN(C)CCCNC(=S)NCC(c1ccc(Cl)cc1Cl)c1c[nH]c2ccccc12` (configuration not stated), the cell number change was -0.833%.
As to `CCCn1c(N)c(Sc2ccc([N+](=O)[O-])cc2)c(=O)n(CCC)c1=O`, the AC50 under setting [2] was 0.651 µM [rising, single point].
For the compound `O=C1NCC(COCc2ccco2)O1` (configuration not stated), the AC50 under setting [2] is 6.51 µM [falling, full curve].
As to `Cn1nc(CC(=O)NCc2ccc(C(F)(F)F)cc2)c2ccccc2c1=O`, the cell number change was -23.2%.
On to `CCOC(=O)C1CCCN(C(=O)Nc2c(-c3ccccc3)noc2C)C1` (configuration not stated), for which the cell number change was -40%. Under setting [1], the AC50 was 3.66 µM [falling, partial curve]. The AC50 under setting [2] is 7.31 µM [falling, partial curve, poor fit].
Consider `Cc1ccc(C(C)C)c(OCc2ccc(C(=O)N/N=C/c3ccc(O)cc3O)cc2)c1`, for which the cell number change is -37.8%. Besides, under setting [1], the AC50 is 16.4 µM [falling, single point]. Moreover, the AC50 under setting [2] is 16.4 µM [falling, single point].
Consider `COc1ccc(OC)c(C2/C(=C(\O)c3ccc4c(c3)OCCO4)C(=O)C(=O)N2CC2CCCO2)c1` (configuration not stated), for which the cell number change was found to be 3.24%. The AC50 under setting [1] is 0.058 µM [rising, full curve, poor fit]. Under setting [2], the AC50 was 29.1 µM [rising, single point].
On to `COc1cccc(NS(=O)(=O)c2c(C)n(C)c(=O)n(C)c2=O)c1`, for which the cell number change amounted to 45.5%. For the same compound, the AC50 under setting [1] was 29.1 µM [rising, single point].
Turning to `CC(C)c1cccc(O)c(=O)c1`, the cell number change was found to be 9.11%.
`CCOc1ccc(N2C(=O)CNC2=S)cc1`: the cell number change was -13.8%. Also, the AC50 under setting [2] is 16.4 µM [falling, single point].
On to `Cc1ccc(CC2S/C(=N/c3ccccn3)NC2=O)cc1` (configuration not stated), for which the cell number change is -32.6%. The AC50 under setting [1] was 29.1 µM [falling, single point].
In the case of `CC(=O)c1cccc(N(CC(=O)Nc2ccc(S(=O)(=O)N3CCCC3)cc2)S(C)(=O)=O)c1`, the cell number change is -20.8%. For the same compound, under setting [2], the AC50 is 0.259 µM [falling, full curve, poor fit].
Turning to `COc1ccc(-c2ocnc2C(=O)Nc2ccc(N3CCOCC3)cc2N2CCOCC2)cc1OC`, the cell number change is 5.13%.
For the compound `Cc1cc(C)c2nc(N(CCCN(C)C)C(=O)c3ccc(S(=O)(=O)N4CCCCCC4)cc3)sc2c1`, the AC50 under setting [1] is 2.06 µM [rising, partial curve].
Turning to `CCOC(=O)c1ccc(NC(=O)CSc2nnc(NC(=O)c3ccc(S(=O)(=O)N4CCOCC4)cc3)s2)cc1`, the cell number change is -36.5%.
As to `Cc1ccsc1C(C(=O)NC1CCCCC1)N(C(=O)c1csnn1)C1CC1` (configuration not stated), the cell number change was determined as 62.2%. In addition, the AC50 under setting [1] is 11.6 µM [rising, partial curve]. Besides, the AC50 under setting [2] was 0.58 µM [rising, single point].
`c1ccc(CN2CN=C(Nc3nc4ccccc4s3)NC2)cc1`: under setting [2], the AC50 is 0.731 µM [rising, single point].
As to `Cc1ccc(S(=O)(=O)Nc2ccc(O)c3ncccc23)cc1`, the cell number change was determined as 40.4%. The AC50 under setting [1] is 23.1 µM [rising, single point].
On to `CN(C(=O)c1ccc(NC(=O)Cc2cccc(NC(=O)C3CCN(C(=O)C4CC4)CC3)c2)cc1)C1CCCC1`, for which the cell number change was -18.1%.
For the compound `CC(C)C(NC(=O)c1ccco1)C(=O)NCc1ccc(C(=O)O)cc1` (configuration not stated), under setting [2], the AC50 is 5.62 µM [falling, single point].
Regarding `N#Cc1ccccc1NC(=O)CSc1n[nH]c(-c2ccco2)n1`, the cell number change is 9.05%. Moreover, under setting [2], the AC50 was 4.11 µM [rising, single point].
Take `CCn1c(SC(C)C(=O)O)nc2sc3c(c2c1=O)CCC3` (configuration not stated): the cell number change is 75.9%. Besides, the AC50 under setting [1] is 20.6 µM [rising, single point].
`CCc1ccccc1NC(=O)c1ccc2nc(N3CCOCC3)sc2c1`: the cell number change amounted to 18.3%. Under setting [2], the AC50 is 0.092 µM [rising, full curve, poor fit].

A word on the AC50: it is the concentration giving half of the maximal activity seen. Lower therefore signals greater potency.
